## Library screening results

Protein sequences, listed by entry. Tags and fused reporters are not part of them.
UniProt E9BF75, entry or part of it: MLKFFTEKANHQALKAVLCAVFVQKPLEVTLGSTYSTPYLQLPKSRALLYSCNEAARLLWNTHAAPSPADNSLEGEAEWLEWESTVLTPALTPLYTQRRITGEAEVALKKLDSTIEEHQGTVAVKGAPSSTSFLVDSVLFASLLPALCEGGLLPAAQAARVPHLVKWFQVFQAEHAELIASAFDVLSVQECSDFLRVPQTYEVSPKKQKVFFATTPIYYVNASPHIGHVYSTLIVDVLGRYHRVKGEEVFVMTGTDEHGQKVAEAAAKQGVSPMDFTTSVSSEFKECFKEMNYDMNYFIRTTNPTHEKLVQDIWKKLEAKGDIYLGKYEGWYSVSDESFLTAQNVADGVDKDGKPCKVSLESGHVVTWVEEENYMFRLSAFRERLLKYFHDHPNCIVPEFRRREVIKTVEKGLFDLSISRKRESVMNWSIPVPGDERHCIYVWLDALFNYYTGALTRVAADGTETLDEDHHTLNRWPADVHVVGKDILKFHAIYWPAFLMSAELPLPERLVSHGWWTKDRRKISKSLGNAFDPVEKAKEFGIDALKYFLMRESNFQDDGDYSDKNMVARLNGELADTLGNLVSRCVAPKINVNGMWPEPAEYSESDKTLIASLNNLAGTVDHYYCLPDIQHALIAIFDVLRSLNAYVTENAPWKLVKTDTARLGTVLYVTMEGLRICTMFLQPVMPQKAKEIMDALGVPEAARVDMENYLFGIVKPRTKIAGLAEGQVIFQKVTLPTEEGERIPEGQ

From ChEMBL document CHEMBL3988442, “University of Dundee, Small-Polar-MMV Screening Library” (2021).

Mtb heat-shock: 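Assay on Mycobacterium tuberculosis, filed only as a heat shock assay from Cornell; the read-out is not stated. The concentration is filed as 10 mM, unlikely as a test dose, so the dose is not known. The record gives no direction; compounds that gave an IC50 in retests scored well above the rest, so higher reads as stronger inhibition. Of about 69,000 compounds tested this way, about 930 (1.4%) reached 50% or more in at least one test.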
LdMetRS: 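Methionyl-tRNA synthetase (putative), Leishmania donovani (UniProt E9BF75). Primary screen of methionyl-tRNA synthetase; the read-out is not stated. The test concentration is not given. Values are per cent inhibition. About 68,000 compounds were tested under these conditions; 0.035% (about 24) showed 50% or more at least once.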
Mtb growth Cornell: 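Whole-cell assay for inhibitors of Mycobacterium tuberculosis growth, labelled Cornell in the record; the read-out is not stated. The concentration is filed as 10 mM, unlikely as a test dose, so the dose is not known. Higher means stronger inhibition (inferred from two other growth screens of the library). Size under these conditions: about 53,000 compounds, about 900 of them at 50% or above in at least one test.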

All values are in %. How 0% and 100% were set is not recorded. Most values in the screen are low, and negative values occur. The compounds are a random part of those screened. A dash means the value is not listed here; it may have been measured.

| Compound | Mtb heat-shock | LdMetRS | Mtb growth Cornell |
|---|---|---|---|
| `CCOC1COC2(CCN(CC3CCOCC3)CC2)C1` (stereo not given) | - | -1.173 | - |
| `O=C1CC[C@]2(CC[C@@H](NCc3ccsc3)CC2)N1Cc1ccccc1` | - | 16.81 | - |
| `CCCn1ncnc1C(C)NC(=O)C1CCN(CC(N)=O)CC1` (stereo not given) | 4.381 | 13.4 | 12.15 |
| `COc1cc(C(=O)N2CCCC(CNS(C)(=O)=O)C2)cc(OC)c1C` (stereo not given) | 4.625 | 7.19 | 21.77 |
| `CN(CCO)Cc1nnc(C2CCN(C(=O)c3ccccc3)CC2)n1C` | -14.98 | 13.41 | 0.4666 |
| `Cc1cccc(CN2C[C@@H]3CN(C(=O)NC(C)C)C[C@@H]3C2=O)n1` | - | 11.2 | - |
| `N#Cc1cccc(CN2CC[C@@H]3[C@@H]2CC(=O)N3Cc2cccnc2)c1` | - | 10.1 | - |
| `Cc1noc(C2CCCN(Cn3cc(Br)cn3)C2)n1` (stereo not given) | 12.21 | 15.41 | - |
| `CC1CCCCN1C(=O)c1nc2c(n1C(C)C)CCN(C(=O)C1CC1)C2` (stereo not given) | 2.904 | 12.68 | 18.67 |
| `O=C(O)C(F)(F)F.O=C(O)C(F)(F)F.[H][C@]12C[C@@H](CN(C)C)N(C(C)=O)[C@@]1([H])CCN(c1ncc(F)cn1)C2` | -7.6 | - | 23.03 |
| `CCC1=N[C@@]2(CC[C@@H]3CN(Cc4ccc(Cl)cc4)C[C@@H]32)C(=O)N1C` | - | 9.764 | - |
| `CN1CCO[C@@H]2CN(S(=O)(=O)c3ccccc3)CC[C@@H]2C1` | - | 13.59 | - |
| `O=C(CCc1ccc(F)cc1)NCc1ccnc(NC2CC2)c1` | -27.47 | 14 | 30.98 |
| `Cc1nc(CN2CCOCC3(CCN(c4ncccn4)CC3)C2)cs1.O=C(O)C(F)(F)F` | -11.45 | - | 14.31 |
| `Cc1cc(CN2C[C@@H]3COC[C@]3(CNS(C)(=O)=O)C2)no1` | - | 8.571 | - |
| `NC(=O)NC(CC(=O)N1CCc2sccc2C1)c1cccc(Br)c1` (stereo not given) | 0.3796 | 15.48 | -5.668 |
| `CCN(C)c1ncnc2c1CCN(C(=O)N(C)C)CC2.O=C(O)C(F)(F)F` | -21.35 | - | 11.11 |
| `CCN1CC2(CCN(Cc3nc(CSC)no3)CC2)CC1=O` | -22.28 | 6.832 | - |
| `N[C@@H]1CCC[C@@H](Oc2ccc(F)cc2Oc2ccccc2)[C@@H]1O` | -7.942 | 15.43 | -14.7 |
| `COCCN1CCCC12CCN(Cc1cccnc1OC)CC2.O=C(O)C(F)(F)F.O=C(O)C(F)(F)F` | -8.308 | - | -31.64 |
| `[H][C@@]12CS(=O)(=O)C[C@]1([H])N(C(=O)NCCc1ccc(OC)cc1)CCN2C` | -18.74 | - | 33.73 |
| `CCN1CCN(C(=O)c2cc(F)cc3nc(C)c(C)nc23)CC1` | -24.13 | 11.54 | 7.004 |
| `CCn1ccc(NS(=O)(=O)c2cccc(CSC)c2)n1` | -12.4 | 24.07 | -0.3019 |
| `CCc1nc(CN(C)C2CCN(CCC(=O)N3CCCCC3)C2)no1` (stereo not given) | 1.632 | 8.434 | - |
| `CN[C@H]1CC[C@]2(CC1)CNC(=O)c1cc(C)ccc1O2` | -8.947 | 16.18 | -8.295 |
| `Cc1cc(C2CCCN(C(=O)c3c(C)noc3C)C2)n[nH]1` (stereo not given) | 11.86 | 9.859 | 16.66 |
| `CCn1nc(CC(C)C)cc1C(=O)N1CCOCC(O)C1` (stereo not given) | 3.24 | - | - |
| `Cc1cccc(CN2C(=O)CO[C@@H]3CN(CCO)C[C@H]32)c1` | - | 12.38 | - |
| `COCC1COCCC12CCN(C(=O)CCOc1ccccc1)CC2` (stereo not given) | 4.419 | 10.48 | 24.96 |
| `Fc1ccc2[nH]c3c(c2c1)CCN1C(c2ccncc2)N2CCC31CC2` (stereo not given) | 6.076 | 9.043 | 14.32 |
| `CC[C@H]1N(CC2CCOCC2)CCC[C@]12CCC(=O)N2` | - | 14.13 | - |
| `CC(C)(C)c1cc(C[C@H]2CNCC[C@H]2CC(=O)N2CCCCC2)no1` | 16.23 | 10.1 | 11.47 |
| `COC[C@@]12CCO[C@@H]1CCN(C(=O)C1CCOCC1)C2` | - | 9.524 | - |
| `COc1ccc(C)cc1C1(CNc2cn[nH]c(=O)c2Cl)CCOCC1` | -12.45 | 8.635 | - |
| `CS(=O)(=O)c1cccc(S(=O)(=O)NC(=O)c2cscn2)c1` | -18.68 | 18.21 | - |
| `CCC(=O)N1CCc2[nH]cnc2C12CCN(C1CCOCC1)CC2` | -1.008 | 8.933 | 1.204 |
| `CC(=O)N1CCC(NC(=O)c2cc(Cl)ccc2O)CC1` | -5.247 | - | - |
| `CN(Cc1cn2c(n1)CN(C1CCOC1)CC2)Cc1ccco1.O=C(O)C(F)(F)F.O=C(O)C(F)(F)F` (stereo not given) | -2.083 | - | -0.2169 |
| `CCN(CCO)C[C@@H]1CN(C(=O)c2sc3ccccc3c2C)C[C@@H]1CO` | -5.788 | 5.625 | -28.56 |
| `O=C(CCc1cn[nH]c1)N1C[C@@H](CN2CCCCCC2)[C@@H](CO)C1` | -0.2106 | 9.067 | - |
| `CC(C)COC1CCN(C(=O)c2ccc(C(F)(F)F)[nH]c2=O)CC1` | -32.2 | 11.94 | 7.674 |
| `CCn1cc(S(=O)(=O)N(C)Cc2c(Br)cnn2CC)c(C)n1` | -19.54 | 13.64 | - |
| `c1cnc(N2CCO[C@H]3[C@H](OCCN4CCCC4)CC[C@@H]32)nc1` | - | 10.73 | - |
| `O=C(c1ccoc1)N1CCO[C@@H]2CNC[C@@H]21` | - | 7.792 | - |
| `O=C(NCCN1CCCS1(=O)=O)c1scnc1Cl` | -14.47 | 14.29 | -1.95 |
| `O=C(O)C(F)(F)F.O=C(O)C(F)(F)F.[H][C@@]12CCC(=O)N(Cc3cccc(C)n3)[C@]1([H])CCN2Cc1ccc(C)s1` | 6.515 | - | - |
| `CCCS(=O)(=O)N1CCC2(CCC(=O)N(CCc3ccncc3)C2)CC1` | -7.341 | 14.78 | - |
| `CCOc1ccccc1C(CC(=O)Nc1ccncc1)NC(C)=O` (stereo not given) | -16.99 | 14.75 | - |
| `[H][C@]12CC[C@]([H])(CN(Cc3c(C)noc3C)C1)N(Cc1cccc(C=C)c1)C2` | -4.454 | - | 19.92 |
| `CC(C)CSc1ccc(-n2cccn2)nn1` | 14.52 | 4.969 | -8.448 |
| `Cc1noc(C)c1CCC(=O)NCC1(O)CCCN(c2ccccn2)C1` (stereo not given) | -7.135 | 17.02 | 12.45 |
| `CN(Cc1ccc(-n2cccn2)cc1)Cc1cnc(N(C)C)nc1` | 2.955 | 11.73 | - |
| `Cc1nccc(-c2cccc(NCC(=O)N3CCOC(C)C3)c2)n1` (stereo not given) | -4.5 | 17.71 | -30.38 |
| `O=C(NCc1cccnc1)[C@@H]1CC[C@@H]2[C@@H](CCN2c2ncccn2)O1` | - | 8.242 | - |
| `O=C1CCC(C(=O)NCCOc2cccc(Cl)c2Cl)CN1` (stereo not given) | 0.7196 | 23.08 | 8.773 |
| `CSCC1CCCN1CCc1ccncc1` (stereo not given) | -40.3 | 6.355 | -10.45 |
| `Cc1cc(CC2COCCN(CCc3ccccc3)C2)ncn1` (stereo not given) | -36.41 | 18.35 | -22.67 |
| `Cc1nc(C)n(CC2CCCCN2CC(=O)Nc2c(C)n[nH]c2C)n1` (stereo not given) | -14.5 | 20 | - |
| `Cn1cnc(-c2nc(C(=O)NCCN3CCCC3)c3ccccn23)c1` | 32.23 | 19.05 | -4.349 |
| `Cc1cc(C)c(S(N)(=O)=O)cc1C(=O)NCC1Cc2ccccc2O1` (stereo not given) | -0.8163 | 15.72 | 0.5334 |
| `CCCNC(=O)C(C)n1cc(Br)cn1` (stereo not given) | -9.271 | 11.81 | 11.53 |
| `CN(CCO)CC1COCCN1C(=O)CCC1CCCC1.O=CO` (stereo not given) | -18.29 | - | -18.55 |
| `Cc1cc(C)n(-c2cncc(NCCNC(=O)C3CCCC3)n2)n1` | -15.31 | 16.38 | 5.901 |
| `O=C(O)c1cc(NS(=O)(=O)c2cccc(Cl)c2F)ccc1Cl` | 11.54 | 0.4049 | -55.53 |
| `CC(C)(C)CC(=O)NC(C)(C(N)=O)c1cccc(Cl)c1` (stereo not given) | -4.244 | 5.706 | -24.04 |
| `CCn1c(C)cc(C(=O)N2CCC(NC(=O)c3cc(C)no3)CC2)c1C` | -4.363 | 17.96 | 10.88 |
| `CN(Cc1cccnc1)C[C@@H]1OC[C@H]2CN(Cc3ccoc3)CC[C@H]21` | - | 12.71 | - |

Repeated from the top, 4 entries:

| Compound | Mtb heat-shock | LdMetRS | Mtb growth Cornell |
|---|---|---|---|
| `CCOC1COC2(CCN(CC3CCOCC3)CC2)C1` (stereo not given) | - | -1.173 | - |
| `O=C1CC[C@]2(CC[C@@H](NCc3ccsc3)CC2)N1Cc1ccccc1` | - | 16.81 | - |
| `CCCn1ncnc1C(C)NC(=O)C1CCN(CC(N)=O)CC1` (stereo not given) | 4.381 | 13.4 | 12.15 |
| `COc1cc(C(=O)N2CCCC(CNS(C)(=O)=O)C2)cc(OC)c1C` (stereo not given) | 4.625 | 7.19 | 21.77 |